Data taken from PMC9724678.

Protein sequences, listed by entry. Tags and fused reporters are not part of them. Residues count along the entry.
UniProt Q93050: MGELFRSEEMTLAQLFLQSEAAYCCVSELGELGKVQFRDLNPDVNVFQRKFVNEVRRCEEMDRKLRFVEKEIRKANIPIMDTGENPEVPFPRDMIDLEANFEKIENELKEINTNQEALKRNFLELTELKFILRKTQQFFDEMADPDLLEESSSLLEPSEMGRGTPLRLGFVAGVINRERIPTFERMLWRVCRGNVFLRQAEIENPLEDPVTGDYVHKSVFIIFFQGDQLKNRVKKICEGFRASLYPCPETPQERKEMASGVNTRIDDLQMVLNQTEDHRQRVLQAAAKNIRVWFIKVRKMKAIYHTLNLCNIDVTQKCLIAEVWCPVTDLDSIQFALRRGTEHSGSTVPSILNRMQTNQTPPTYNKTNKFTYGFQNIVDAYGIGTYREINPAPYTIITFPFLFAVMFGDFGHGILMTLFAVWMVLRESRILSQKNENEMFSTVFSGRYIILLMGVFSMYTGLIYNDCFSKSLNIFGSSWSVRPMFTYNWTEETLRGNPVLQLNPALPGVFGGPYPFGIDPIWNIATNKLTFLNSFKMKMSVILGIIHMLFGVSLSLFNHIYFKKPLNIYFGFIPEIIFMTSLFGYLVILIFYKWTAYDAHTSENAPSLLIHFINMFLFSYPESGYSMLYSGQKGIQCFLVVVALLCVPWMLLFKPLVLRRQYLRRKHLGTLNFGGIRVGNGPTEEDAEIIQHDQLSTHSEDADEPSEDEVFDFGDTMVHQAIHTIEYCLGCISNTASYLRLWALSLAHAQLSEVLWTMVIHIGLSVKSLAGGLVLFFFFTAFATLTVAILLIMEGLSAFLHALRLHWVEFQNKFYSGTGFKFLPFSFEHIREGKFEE
UniProt P46379: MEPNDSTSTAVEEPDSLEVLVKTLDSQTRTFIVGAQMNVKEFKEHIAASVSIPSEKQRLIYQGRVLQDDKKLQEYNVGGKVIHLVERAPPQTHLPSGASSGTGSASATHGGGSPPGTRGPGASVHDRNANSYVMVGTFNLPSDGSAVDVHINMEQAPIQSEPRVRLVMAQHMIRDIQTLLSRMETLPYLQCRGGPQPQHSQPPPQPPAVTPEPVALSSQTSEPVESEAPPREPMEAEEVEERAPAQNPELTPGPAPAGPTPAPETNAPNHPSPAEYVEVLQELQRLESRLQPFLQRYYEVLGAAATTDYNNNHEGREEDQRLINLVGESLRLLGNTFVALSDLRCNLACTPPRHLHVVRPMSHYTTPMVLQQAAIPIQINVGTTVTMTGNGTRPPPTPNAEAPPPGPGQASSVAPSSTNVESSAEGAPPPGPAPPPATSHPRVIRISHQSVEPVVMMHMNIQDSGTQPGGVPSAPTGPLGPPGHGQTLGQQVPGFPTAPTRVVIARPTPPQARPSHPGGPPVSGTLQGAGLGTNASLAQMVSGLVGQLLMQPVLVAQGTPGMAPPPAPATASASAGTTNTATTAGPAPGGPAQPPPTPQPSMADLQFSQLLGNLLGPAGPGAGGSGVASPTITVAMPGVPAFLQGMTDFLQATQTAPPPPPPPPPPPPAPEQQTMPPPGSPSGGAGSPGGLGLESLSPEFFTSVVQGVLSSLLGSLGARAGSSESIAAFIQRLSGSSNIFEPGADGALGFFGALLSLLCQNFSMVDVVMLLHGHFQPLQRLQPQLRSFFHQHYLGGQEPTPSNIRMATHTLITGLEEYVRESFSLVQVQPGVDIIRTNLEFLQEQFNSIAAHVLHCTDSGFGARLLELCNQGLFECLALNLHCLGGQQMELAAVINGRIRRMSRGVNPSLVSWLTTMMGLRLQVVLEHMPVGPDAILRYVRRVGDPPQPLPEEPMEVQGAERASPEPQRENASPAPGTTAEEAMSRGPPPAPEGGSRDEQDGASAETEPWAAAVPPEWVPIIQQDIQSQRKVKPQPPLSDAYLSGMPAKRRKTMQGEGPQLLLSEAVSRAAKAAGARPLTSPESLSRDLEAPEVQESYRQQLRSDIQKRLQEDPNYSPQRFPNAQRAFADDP
UniProt P53618: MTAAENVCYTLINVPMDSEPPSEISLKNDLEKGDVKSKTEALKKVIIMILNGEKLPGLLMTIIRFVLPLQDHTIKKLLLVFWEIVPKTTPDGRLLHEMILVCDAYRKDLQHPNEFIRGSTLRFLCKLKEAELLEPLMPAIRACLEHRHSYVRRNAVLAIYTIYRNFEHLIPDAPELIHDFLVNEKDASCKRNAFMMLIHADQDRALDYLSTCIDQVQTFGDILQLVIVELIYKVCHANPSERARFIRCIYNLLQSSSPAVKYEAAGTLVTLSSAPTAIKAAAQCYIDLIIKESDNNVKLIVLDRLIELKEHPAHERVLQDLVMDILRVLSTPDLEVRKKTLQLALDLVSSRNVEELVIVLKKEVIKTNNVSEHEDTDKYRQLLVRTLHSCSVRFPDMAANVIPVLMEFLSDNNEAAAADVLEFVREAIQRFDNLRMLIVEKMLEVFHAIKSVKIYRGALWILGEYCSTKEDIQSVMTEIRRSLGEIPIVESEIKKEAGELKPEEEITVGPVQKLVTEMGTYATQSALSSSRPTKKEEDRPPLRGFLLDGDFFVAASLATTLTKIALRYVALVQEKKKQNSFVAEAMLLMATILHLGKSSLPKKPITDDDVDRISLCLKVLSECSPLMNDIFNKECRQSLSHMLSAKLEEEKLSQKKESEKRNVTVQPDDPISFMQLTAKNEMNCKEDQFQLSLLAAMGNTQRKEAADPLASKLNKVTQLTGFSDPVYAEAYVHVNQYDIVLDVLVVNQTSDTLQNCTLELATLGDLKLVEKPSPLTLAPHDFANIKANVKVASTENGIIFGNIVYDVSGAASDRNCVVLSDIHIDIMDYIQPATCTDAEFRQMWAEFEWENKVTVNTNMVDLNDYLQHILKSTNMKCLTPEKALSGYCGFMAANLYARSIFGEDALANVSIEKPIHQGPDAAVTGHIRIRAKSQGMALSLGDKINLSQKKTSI
UniProt P27824, residues 21-592: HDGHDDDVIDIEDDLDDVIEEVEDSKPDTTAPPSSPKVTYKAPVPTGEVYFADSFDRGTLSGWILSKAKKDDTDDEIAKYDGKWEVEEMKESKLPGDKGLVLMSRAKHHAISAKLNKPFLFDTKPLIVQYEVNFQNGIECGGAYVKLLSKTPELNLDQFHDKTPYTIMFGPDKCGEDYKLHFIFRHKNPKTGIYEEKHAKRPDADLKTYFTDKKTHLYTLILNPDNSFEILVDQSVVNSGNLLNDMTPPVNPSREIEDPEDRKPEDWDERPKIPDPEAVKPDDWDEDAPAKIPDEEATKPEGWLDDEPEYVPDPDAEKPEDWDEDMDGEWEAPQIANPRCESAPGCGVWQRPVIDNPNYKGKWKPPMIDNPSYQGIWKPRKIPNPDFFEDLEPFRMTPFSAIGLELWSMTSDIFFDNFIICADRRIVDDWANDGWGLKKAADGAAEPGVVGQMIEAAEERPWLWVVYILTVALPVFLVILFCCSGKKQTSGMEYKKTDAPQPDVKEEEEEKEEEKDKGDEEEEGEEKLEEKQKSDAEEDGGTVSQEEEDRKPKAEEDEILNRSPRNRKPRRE
UniProt Q8IWV8: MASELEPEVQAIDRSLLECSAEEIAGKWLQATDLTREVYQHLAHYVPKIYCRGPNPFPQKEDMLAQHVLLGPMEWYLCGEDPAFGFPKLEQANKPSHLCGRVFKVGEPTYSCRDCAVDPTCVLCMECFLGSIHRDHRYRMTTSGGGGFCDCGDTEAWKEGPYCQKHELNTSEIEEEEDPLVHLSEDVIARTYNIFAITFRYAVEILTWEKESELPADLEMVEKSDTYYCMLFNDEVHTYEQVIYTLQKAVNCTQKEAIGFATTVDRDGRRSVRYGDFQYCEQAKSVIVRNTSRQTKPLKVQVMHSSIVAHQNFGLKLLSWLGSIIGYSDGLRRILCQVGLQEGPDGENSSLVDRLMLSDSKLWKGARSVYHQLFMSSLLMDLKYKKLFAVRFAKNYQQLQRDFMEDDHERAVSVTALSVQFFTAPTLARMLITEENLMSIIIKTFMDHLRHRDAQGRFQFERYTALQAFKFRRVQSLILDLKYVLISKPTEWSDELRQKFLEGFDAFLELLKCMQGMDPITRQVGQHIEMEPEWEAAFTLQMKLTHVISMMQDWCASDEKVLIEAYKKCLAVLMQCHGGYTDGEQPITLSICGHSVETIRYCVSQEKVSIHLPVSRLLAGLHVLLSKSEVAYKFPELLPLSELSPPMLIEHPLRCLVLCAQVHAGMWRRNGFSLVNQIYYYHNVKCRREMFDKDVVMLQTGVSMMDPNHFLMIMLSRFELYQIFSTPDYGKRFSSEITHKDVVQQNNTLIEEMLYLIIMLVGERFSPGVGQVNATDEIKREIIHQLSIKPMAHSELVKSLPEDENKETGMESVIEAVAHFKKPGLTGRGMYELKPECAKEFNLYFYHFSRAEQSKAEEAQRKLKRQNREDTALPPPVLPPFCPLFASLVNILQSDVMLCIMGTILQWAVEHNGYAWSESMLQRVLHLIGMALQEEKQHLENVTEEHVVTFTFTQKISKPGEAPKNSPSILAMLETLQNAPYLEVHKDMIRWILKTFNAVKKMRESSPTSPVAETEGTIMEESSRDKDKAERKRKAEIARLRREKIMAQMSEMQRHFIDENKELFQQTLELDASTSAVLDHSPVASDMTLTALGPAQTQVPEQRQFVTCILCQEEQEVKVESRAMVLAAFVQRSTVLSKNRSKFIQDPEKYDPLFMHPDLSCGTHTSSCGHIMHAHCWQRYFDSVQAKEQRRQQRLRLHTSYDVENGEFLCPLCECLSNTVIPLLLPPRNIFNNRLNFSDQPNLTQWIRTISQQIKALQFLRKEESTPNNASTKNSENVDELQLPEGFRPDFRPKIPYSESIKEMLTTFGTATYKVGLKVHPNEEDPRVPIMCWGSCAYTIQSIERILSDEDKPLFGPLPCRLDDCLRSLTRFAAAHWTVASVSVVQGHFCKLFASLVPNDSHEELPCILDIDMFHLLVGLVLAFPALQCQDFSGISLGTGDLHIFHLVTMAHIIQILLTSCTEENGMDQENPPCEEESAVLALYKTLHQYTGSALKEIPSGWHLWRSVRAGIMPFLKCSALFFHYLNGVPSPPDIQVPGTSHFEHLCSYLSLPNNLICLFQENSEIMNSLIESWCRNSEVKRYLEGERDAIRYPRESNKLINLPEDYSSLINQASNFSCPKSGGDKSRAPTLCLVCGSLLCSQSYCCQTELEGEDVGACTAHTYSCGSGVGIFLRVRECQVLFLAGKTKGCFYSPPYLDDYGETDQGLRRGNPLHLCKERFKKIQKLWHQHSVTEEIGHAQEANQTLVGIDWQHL
UniProt Q9UHD2: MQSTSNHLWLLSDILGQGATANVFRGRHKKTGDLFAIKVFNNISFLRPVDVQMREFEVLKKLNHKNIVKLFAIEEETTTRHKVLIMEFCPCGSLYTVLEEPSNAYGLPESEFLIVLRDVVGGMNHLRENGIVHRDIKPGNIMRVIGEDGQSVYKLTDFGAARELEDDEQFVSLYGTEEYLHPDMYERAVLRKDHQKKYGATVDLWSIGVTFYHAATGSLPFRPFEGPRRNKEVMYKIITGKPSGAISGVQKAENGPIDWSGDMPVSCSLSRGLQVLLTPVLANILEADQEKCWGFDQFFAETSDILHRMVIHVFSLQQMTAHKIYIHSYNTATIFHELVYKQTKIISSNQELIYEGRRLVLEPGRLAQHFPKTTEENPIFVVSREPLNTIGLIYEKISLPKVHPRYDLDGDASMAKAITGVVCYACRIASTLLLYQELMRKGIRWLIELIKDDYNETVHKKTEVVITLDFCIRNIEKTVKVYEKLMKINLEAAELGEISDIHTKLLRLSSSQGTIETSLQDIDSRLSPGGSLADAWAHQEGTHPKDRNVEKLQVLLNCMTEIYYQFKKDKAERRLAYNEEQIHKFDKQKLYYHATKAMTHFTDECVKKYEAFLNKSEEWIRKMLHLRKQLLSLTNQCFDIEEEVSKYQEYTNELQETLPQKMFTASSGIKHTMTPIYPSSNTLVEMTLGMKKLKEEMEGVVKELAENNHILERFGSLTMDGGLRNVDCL

Target: GFP-T6BP (TAX1BP1 / TRAF6-binding protein fused to GFP) (UniProt Q86VP1)
Experiment: affinity purification with mass spectrometry; GFP-T6BP or GFP alone from transfected HeLa-CIITA lysate (1% Triton X-100 buffer) on GFP-Trap agarose magnetic beads, 1 h 4°C, on-bead digestion, LC-MS/MS; three biological replicates; fold change ≥10, SAINT ≥0,8

binding, binds:
ATP6V0A1, a subunit of the vATPase (from UniProt Q93050 1-837)
BAG6 (from UniProt P46379 1-1132)
COPB1 (from UniProt P53618 1-953)
Calnexin (CANX), endogenous (from UniProt P27824 21-592)
E3 Ub-ligase UBR1 (from UniProt Q8IWV7 1-1749)
E3 Ub-ligase UBR2 (from UniProt Q8IWV8 1-1755)
E3 Ub-ligase UBR4 (from UniProt Q5T4S7 1-5183)
autophagy receptor p62 (SQSTM1, Sequestosome-1) (from UniProt Q13501 1-440)
kinase TBK1 (TANK-binding kinase-1) (from UniProt Q9UHD2 1-729)

No constants are given. Whether binding was seen depends on the method and setting. In cells and extracts the contact can be indirect. These calls come from enrichment with a bait or labelling near it, and not all partners need be listed.
